Article PMC3581772
No constants are given. Whether binding was seen depends on the method and setting. Some entries that bind do so weakly or less than the wild type.

Molecular target: T1, reduced and carboxymethylated α-lactalbumin, P00711
T1 chain: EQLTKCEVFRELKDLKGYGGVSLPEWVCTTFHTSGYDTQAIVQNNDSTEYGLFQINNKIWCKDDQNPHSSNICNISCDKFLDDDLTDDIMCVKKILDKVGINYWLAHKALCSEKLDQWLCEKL
Assay: thioflavin T fluorescence of fibril formation; Supplementary Fig. 3, conditions not shown; the abstract's summary names fluorescence technology
Conditions: remark: other sources report otherwise

binding: binds
B1: reduced and carboxymethylated α-lactalbumin, P00711 20-142 (protein)
chain: T1 chain
modifications: here or on the partner: reduced and carboxymethylated; reduced and carboxymethylated
